Data: publication PMC8550753
Results are given in words; binding and its absence hold for the method and conditions named. Binding seen in cells or lysates may run through a third protein. Some binding calls cover weakened binding; strength is not graded here.

Sequences of proteins named here, by UniProt entry; tags and fusion partners are left off. Residues count along the entry.
UniProt Q6P9K9, residues 28-1496: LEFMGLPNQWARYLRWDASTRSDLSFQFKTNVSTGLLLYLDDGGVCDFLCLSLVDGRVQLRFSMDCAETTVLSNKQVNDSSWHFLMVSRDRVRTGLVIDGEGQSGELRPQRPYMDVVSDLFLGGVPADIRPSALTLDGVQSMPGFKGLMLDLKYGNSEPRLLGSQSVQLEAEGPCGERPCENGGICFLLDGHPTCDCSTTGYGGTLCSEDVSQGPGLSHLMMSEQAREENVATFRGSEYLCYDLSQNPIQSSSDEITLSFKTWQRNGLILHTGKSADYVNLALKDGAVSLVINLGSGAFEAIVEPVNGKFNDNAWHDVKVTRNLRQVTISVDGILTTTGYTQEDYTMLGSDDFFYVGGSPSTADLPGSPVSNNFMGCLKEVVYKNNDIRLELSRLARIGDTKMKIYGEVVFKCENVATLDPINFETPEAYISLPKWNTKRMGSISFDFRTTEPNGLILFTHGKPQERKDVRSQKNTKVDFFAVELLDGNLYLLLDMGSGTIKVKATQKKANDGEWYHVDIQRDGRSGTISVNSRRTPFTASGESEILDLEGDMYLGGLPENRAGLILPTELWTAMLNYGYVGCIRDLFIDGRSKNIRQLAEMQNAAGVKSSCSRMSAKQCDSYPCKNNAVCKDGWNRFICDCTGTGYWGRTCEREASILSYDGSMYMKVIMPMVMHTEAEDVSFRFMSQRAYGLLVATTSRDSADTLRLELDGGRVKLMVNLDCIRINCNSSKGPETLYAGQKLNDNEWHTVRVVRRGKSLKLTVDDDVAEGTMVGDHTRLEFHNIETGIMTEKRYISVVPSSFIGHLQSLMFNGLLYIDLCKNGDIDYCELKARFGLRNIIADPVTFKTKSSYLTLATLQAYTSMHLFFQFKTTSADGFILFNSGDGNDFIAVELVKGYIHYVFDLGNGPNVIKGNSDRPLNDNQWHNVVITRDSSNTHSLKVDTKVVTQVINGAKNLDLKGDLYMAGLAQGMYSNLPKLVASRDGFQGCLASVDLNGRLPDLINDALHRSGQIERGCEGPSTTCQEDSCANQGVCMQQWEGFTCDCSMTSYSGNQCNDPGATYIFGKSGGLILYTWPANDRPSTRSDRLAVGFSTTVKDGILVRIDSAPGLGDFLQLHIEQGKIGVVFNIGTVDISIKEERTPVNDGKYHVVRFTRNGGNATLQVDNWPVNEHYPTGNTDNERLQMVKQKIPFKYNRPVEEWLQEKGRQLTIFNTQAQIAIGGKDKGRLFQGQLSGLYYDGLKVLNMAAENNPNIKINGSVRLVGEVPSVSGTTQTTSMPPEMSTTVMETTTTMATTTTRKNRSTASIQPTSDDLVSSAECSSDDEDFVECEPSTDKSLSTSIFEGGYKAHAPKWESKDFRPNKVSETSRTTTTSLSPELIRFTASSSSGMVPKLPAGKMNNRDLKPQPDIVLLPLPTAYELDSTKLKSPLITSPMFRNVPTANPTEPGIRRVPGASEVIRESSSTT
UniProt Q69ZK9, residues 15-836: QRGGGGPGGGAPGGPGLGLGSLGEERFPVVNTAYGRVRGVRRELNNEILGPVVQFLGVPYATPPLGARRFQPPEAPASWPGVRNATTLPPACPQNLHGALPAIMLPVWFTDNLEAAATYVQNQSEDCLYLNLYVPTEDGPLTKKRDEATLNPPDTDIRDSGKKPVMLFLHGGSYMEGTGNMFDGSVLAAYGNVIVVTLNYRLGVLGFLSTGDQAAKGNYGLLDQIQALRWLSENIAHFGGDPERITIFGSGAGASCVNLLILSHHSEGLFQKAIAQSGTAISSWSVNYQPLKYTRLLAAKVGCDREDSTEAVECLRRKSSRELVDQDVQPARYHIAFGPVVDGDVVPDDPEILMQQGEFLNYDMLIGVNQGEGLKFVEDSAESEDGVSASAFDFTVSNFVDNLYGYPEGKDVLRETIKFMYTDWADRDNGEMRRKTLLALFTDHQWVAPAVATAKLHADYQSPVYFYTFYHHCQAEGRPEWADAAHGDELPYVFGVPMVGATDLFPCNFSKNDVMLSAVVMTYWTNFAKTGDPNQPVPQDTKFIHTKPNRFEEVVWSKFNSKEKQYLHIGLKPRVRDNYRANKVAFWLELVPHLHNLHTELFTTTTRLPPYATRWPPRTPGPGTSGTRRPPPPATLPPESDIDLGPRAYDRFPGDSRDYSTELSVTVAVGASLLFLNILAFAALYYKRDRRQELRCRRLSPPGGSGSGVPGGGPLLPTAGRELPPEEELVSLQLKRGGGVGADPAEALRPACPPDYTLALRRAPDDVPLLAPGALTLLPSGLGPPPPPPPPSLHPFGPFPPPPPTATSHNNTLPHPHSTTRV

Assays:
[1] = molecular target: extracellular domain of mouse neurexin-3 alpha SS4+ fused with the human Fc domain (mouse) (UniProt Q6P9K9); experiment: pull-down; as a1 but without calcium: incubation with 5 mM EDTA, washes without CaCl2 and MgCl2; only the target purified
[2] = molecular target: extracellular domain of mouse neurexin-3 alpha SS4+ fused with the human Fc domain (mouse) (UniProt Q6P9K9); experiment: pull-down; Nrxn3α-Fc on protein A beads incubated with the 100,000 x g supernatant of mouse cerebella solubilized in 25 mM Tris-Cl pH 8.0, 1 % LMNG; with 2 mM CaCl2 and 2 mM MgCl2; six washes with 0.1 % LMNG, 40 mM Tris-HCl pH 8.0 with 2 mM CaCl2, 2 mM MgCl2; bound proteins by SDS-PAGE and immunoblot; only the target purified

Molecule | binding [1] | binding [2]
neuroligin 2 (from UniProt Q69ZK9 15-836) | no binding (condition: with 5 mM EDTA (without calcium)) | binds
GARLH4 (protein, UniProt Q5U4E0 1-247) MLPSQEASKLYHEHYMRNSRAIGVLWAIFTICFAIINVVVFIQPYWVGDSVSTPKPGYFGLFHYCVGSGLAGRELTCRGSFTDFSTIPSSAFKAAAFFVLLSMVLILGCITCFALFFFCNTATVYKICAWMQLLAALCLVLGCMIFPDGWDAETIRDMCGAKTGKYSLGDCSVRWAYILAIIGILNALILSFLAFVLGNRQTDLLQEELKQENKDFVGTTVSSVLRPGGDVSGWGVLPCPVAHTQGP | no binding (condition: with 5 mM EDTA (without calcium)) | binds
